# Measured values taken from US20240066087A1, “SUTHERLANDIA EXTRACT AND THE USE THEREOF IN THE MANUFACTURE OF A MEDICAMENT” (ACUPHARM INTERNATIONAL PROPRIETARY LIMITED, priority 2020, published 2024).
# At least one compound was matched to its structure with a doubt left. Some entries repeat one wording, which the source may state once for all of them.
# Test system: cultured tissue from needle biopsy, Breast DCIS papillary neoplasm
# Assay: dose response study with cumulative cell death on cultured patient biopsy tissue (patient 19055)
# Assay type: cell-based, human
# Conditions: in vitro cultured biopsy sample, patient 19055, Breast DCIS papillary neoplasm
# Description: Comparative studies were performed using Sutherlandia leaf extract in water (referred to as ACPJL35), Sutherlandia leaf extract in 50% ethanol and water solution (referred to as ACPJL28), and Sutherlandia leaf extract in 90% ethanol and water solution (referred to as ACPJL07). These extracts were compared to a number of known botanical isolates with anti-cancer activity, as well as a number of known anti-cancer drugs, using a dose response design with cumulative cell death as the dependent variable. These studies were conducted on in vitro samples of cultured tissue, taken as biopsy samples from patients as part of a standard culture and testing process done in order to optimise treatment.
# Patient from whom sample was obtained was a person presenting with a diagnosis of Breast DCIS papillary neoplasm. The sample was obtained via needle biopsy, before being cultured.
smiles,measurement,value
Cc1ccc(C(=O)Nc2ccc(CN3CCN(C)CC3)c(C(F)(F)F)c2)cc1C#Cc1cnc2cccnn12 [Ponatinib],"efficacy assessment from dose response (dose-CR curve), cumulative cell death as dependent variable",having potential benefit
